# Source: PubChem BioAssay AID493014 (National Center for Advancing Translational Sciences (NCATS), 2011)
# Among all 340,000 compounds or so, about 170 (0.05%) were called active. The shares of active, inactive and inconclusive entries below differ from those in the screen. The call rests on the fitted dose curve; in most records, active means well fitted inhibition curve with a large enough effect in the signal ratio, with a control signal flat (not every such curve was filed as active); inconclusive means small, poorly fitted or top-dose-only effect, or effect the other way, or a change in a side signal; inactive means flat fitted curve, though single readings scatter; the % refers to the signal ratio. A potency beside an inconclusive call is a rough fit, not a confirmed value.
# Test: qHTS Assay to Find Inhibitors of Chronic Active B-Cell Receptor Signaling;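 on activity change, negative = inhibition: plate controls were basal doxycycline-induced cells for no effect and cells given 10 µM MG132 for full effect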
# Conditions: ABC-DLBCL IkBa-CBG/CBR reporter, luminescence ratio (green luciferase fused to IkBa over red control in TMD8 lymphoma cells), 4 h; activity change, negative = inhibition: at 46.1 µM (top of the series) unless noted
# How it was run: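 Concentration-response series (up to 46 uM) were applied to TMD8 dual-reporter cells for 4 h at 37C with doxycycline. Green/red ratio, after filter-overlap correction, defined %Activity; red signal alone was normalised to basal cells and zero luminescence.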
# Potency means the concentration at half of the fitted maximal effect.
Compound,"activity change, negative = inhibition",Potency
C=CCSc1nc(Oc2ccccc2)c2sccc2n1,inconclusive: 3.02%,–
S=C(NCc1ccco1)Nc1cccc(Cl)c1Cl,inconclusive: 6.34%,–
Cc1ccc(-n2nc3c(N4CCC(C(=O)NCCc5ccccc5C)CC4)nnc(C)c3c2C)cc1,inactive: 3.06%,–
COc1ccc(CCOC(=O)c2cccc(NC(C)=O)c2)cc1,–,"inconclusive: 17.8 µM [falling, partial curve, poor fit]"
Oc1ccccc1C1CC(c2cccs2)=NC(c2ccc(Cl)cc2)N1 (stereo not drawn),–,"inconclusive: 31.6 µM [rising, single point]"
Cc1cc(SCC(=O)N/N=C/c2ccc(O)cc2O)nc2ccccc12,–,"inconclusive: 15.8 µM [falling, single point]"
Clc1ccc(-c2noc(COc3ccccc3)n2)cc1,inconclusive: 6.73%,–
CCc1cc2c(=O)[nH]c(N3CCOCC3)nc2s1,–,"inconclusive: 18.4 µM [falling, single point]"
O=c1[nH]nc(CNc2ccc(O)cc2)c2ccccc12,–,"inconclusive: 20.6 µM [falling, single point]"
Cc1cccc(-c2sc(Nc3ccccc3)n[n+]2-c2ccccc2)c1,inconclusive: -21.2%,–
O=C(Nc1ccccc1C(=O)Nc1nnc(C(F)(F)F)s1)c1ccccc1Cl,–,"inconclusive: 1.12 µM [rising, full curve]"
NC1=CC(=O)c2cccc3cccc1c23,inactive: 16.8%,–
CC(C)CCNC(=O)c1csc2c1CCCCC2,inconclusive: 14.3%,–
CCCCC1C(=O)N(c2ccccc2)N(c2ccccc2)C1=O,–,"inconclusive: 10 µM [falling, partial curve, poor fit]"
Cc1cccc(C(=O)OCC(=O)NCC2COc3ccccc3O2)c1 (stereo not drawn),inactive: -1.44%,–
CCCCn1c(-c2ccc([N+](=O)[O-])cc2)n[nH]c1=S,inconclusive: 14%,–
COc1cc(CCC(=O)OCC(=O)Nc2cccc(S(N)(=O)=O)c2)cc(OC)c1OC,inconclusive: -0.41%,–
CC(=O)Oc1cc2c(C(=O)NCCCN3CCOCC3)c(C)oc2c2ccccc12,–,"inconclusive: 20 µM [falling, partial curve, poor fit]"
COc1cc(-c2nnc(CSc3nnc(Nc4ccc(Oc5ccccc5)cc4)s3)o2)cc(OC)c1OC,inconclusive: 15.5%,–
Cc1[nH]c(=O)[nH]c(=O)c1S(=O)(=O)N1CCCC(C(=O)N2CCN(c3ccccc3Cl)CC2)C1 (stereo not drawn),inconclusive: -0.751%,–
CC(C)(C)NC(=O)CSc1nc2ccccc2n1-c1ccccc1,inconclusive: -9.68%,–
COc1ccc(OC)c(NC(=O)c2ccc(-c3cccs3)cc2)c1,–,"inconclusive: 5.62 µM [falling, partial curve]"
CCC(C)NC(=O)N1c2ccccc2Sc2ccccc21 (stereo not drawn),–,"inconclusive: 1 µM [falling, full curve]"
CCn1c(SCC(=O)c2cc(C)n(CC3CCCO3)c2C)nc2ccccc21 (stereo not drawn),inconclusive: -3.73%,–

Compound,"activity change, negative = inhibition",Potency
O=C(Nc1nc2c(s1)CCCC2)c1cccs1,–,"inconclusive: 20.6 µM [falling, partial curve]"
COC(=O)c1ccccc1OCC(=O)N1CCN(c2ccc(OC)cc2)CC1,–,"inconclusive: 20 µM [falling, partial curve]"
Cc1ccc(S(=O)(=O)N(C)c2ccc(OC(=O)c3cc(=O)[nH]c4ccccc34)cc2)cc1,inconclusive: 0.641%,–
C#CCOCCOCCOCCNc1nc(N2CCN(C(=O)CCCCCCCCCCNC(=O)Cn3cc(CCCCCN)nn3)CC2)nc(N2CCN(C(=O)CCCCCCCCCCNC(=O)[C@H](CO)n3cc(CCCCCN)nn3)CC2)n1,inconclusive: 4.17%,–
COc1ccc(CCN2CCCn3c2nc2c3c(=O)[nH]c(=O)n2C)cc1OC,inconclusive: -16.5%,–
Cc1ccc(CNc2ccc(O)cc2)cc1,inconclusive: 3.38%,–
C/C(=N\OCc1nc2ccccc2c(=O)n1/N=C/c1cc([N+](=O)[O-])ccc1O)c1ccccc1,–,"inconclusive: 31.6 µM [falling, single point]"
COc1ccc(NC(=O)c2ccc3c(=O)n(CC4CCCO4)c(=S)[nH]c3c2)c(OC)c1 (stereo not drawn),inconclusive: -0.25%,–
O=C(NC1CC1)c1ccc(F)cc1Cl,inactive: -18.8%,–
CCOc1ccc(/C=N/Nc2ccccn2)cc1OC,inconclusive: -1.51%,–
COc1ccc([C@H]2CC(=O)C=C(c3ccnc4ccc(Cl)cc34)C2)cc1,inactive: -1.81%,–
CCOc1ccc(OCC)c(NC(=O)CSCCc2ccccn2)c1,inconclusive: 0.0369%,–
CN(C)c1ccc(C(=O)N/N=C/c2ccccn2)cc1,inconclusive: -10.4%,–
CCOC(=O)N1CCN(C(=O)c2ccccc2-c2ccccc2)CC1,inconclusive: -2.49%,–
CC[C@@]12C(=O)N(c3ccccc3)C(=O)N1[C@H](c1ccc(OC)cc1)[C@@H]1C(=O)N(C(C)(C)C)C(=O)[C@@H]12,inconclusive: -1.88%,–
CCOC(=O)c1ccccc1NC(=O)CSc1cc(C)[nH]c(=O)n1,inactive: -8.94%,–
CCOc1ccc(CNC(=O)CCCc2cn(C)c3ccccc23)cc1,–,"inconclusive: 15.8 µM [falling, single point]"
Cc1cc(NC(=O)c2cnn3cccnc23)nn1CC(=O)Nc1cccnc1,inconclusive: -17.7%,–
CC1(C(=O)NCCCNc2ncc(C(F)(F)F)cc2Cl)C=CCN1C(=O)c1ccccc1 (stereo not drawn),inconclusive: -14.9%,–
CN1CCN(C(=O)C2CCN(S(=O)(=O)c3cnc[nH]3)CC2)CC1,inconclusive: -1.34%,–
Cc1cnc(NC(=O)C2CC=CCC2)s1 (stereo not drawn),–,"inconclusive: 35.5 µM [falling, single point]"
O=C(NNC(=O)c1cc(-c2ccncc2)nc2ccccc12)c1cccc(Cl)c1,–,"inconclusive: 18.4 µM [falling, partial curve]"
Cc1ccc2nc3n(c(=O)c2c1)-c1ccc(Cl)cc1C(=O)NC3Cc1ccccc1 (stereo not drawn),–,"inconclusive: 20.6 µM [falling, partial curve, poor fit]"
COc1ccc(OC)c(CN(CCCN2CCOCC2)C(=O)Nc2ccccc2)c1,inconclusive: 0.755%,–

# Another view of part of the listing above.
Compound | activity change, negative = inhibition | Potency
CCOc1ccc(/C=N/Nc2ccccn2)cc1OC | inconclusive: -1.51% | –
COc1ccc([C@H]2CC(=O)C=C(c3ccnc4ccc(Cl)cc34)C2)cc1 | inactive: -1.81% | –
CCOc1ccc(OCC)c(NC(=O)CSCCc2ccccn2)c1 | inconclusive: 0.0369% | –
CN(C)c1ccc(C(=O)N/N=C/c2ccccn2)cc1 | inconclusive: -10.4% | –
